For part of these data: At least one structure is not confirmed: it was looked up by name or label, or the drawing left a doubt. Some of these results come from one statement about several compounds together.
Experiments:
[1] = tested on: Rac1; test: Rac1-GTP activity (PAK pulldown; Rac1GTP antibody confocal microscopy); format: cell-based, human; conditions: for Rac1GTP (PAK pulldown): EGF stimulated psoriatic keratinocytes, 10 μM; for Rac1GTP activity by confocal microscopy: Rac1-activated cells (V12KC)
[2] = tested on: Rac1V12 transgenic mice; test: Rac1V12 transgenic mouse model of psoriasis; format: in vivo; conditions: topical
Method: Transgenic mice and mice for xenografting Rac1V12-transgenic mice were generated as previously described. For xenografting, NOD/SCID mice were used (NOD.CB17-PrkdcSCID/J mice; stock 001303; The Jackson Laboratory).
Topical formulation and administration. A rudimentary preparation of benzamil was tested using benzamil (6 mg/ml, benzamil, Sigma) in 100% ethanol. This solution was then topically applied through submerged and air-drying tails of mice under anesthesia, once daily for 15 days. Similarly, benzamil was suspended in water (2 mg/ml), then mixed into Vaseline, vortexed and centrifuged until a clear solution was obtained. A final formulation of benzamil is described in supplementary material and methods. For intraperitoneal injections, benzamil was dissolved at 2 mg/ml in water, and 0.7, 1.4 or 2.1 mg/kg was injected IP daily. For osmotic pump injections, Alzet osmotic pumps were used, (Alzet minipump 1002). Pumps were filled with 100 ul of benzamil in ethanol under sterile conditions, at a final dose of 2 mg/kg/day, and subcutaneous, inter-scapular implantations were performed under anesthesia. Pumps were replaced once for a total of 2×14 days treatment period.
Topical formulation of benzamil. A labrasol (88%) based formulation of benzamil was generated containing benzamil (1%, w/w), span-20 (1%) and cetyltrimethylammonium bromide (CTAB) (10%). Constituents were dissolved in ethyl alcohol, mixed well using vortex and sonication at 37° C. until a clear solution was obtained. Ethyl alcohol was evaporated in a Speedvac. The residue was suspended in Labrasol and homogenized to obtain the final formulation.
For a final formulation of benzamil (for use on human reconstructed skin), 52 ml water, 5.2 ml glycerin, 9.7 ml rice bran oil, 4 ml caprylic aid triglyceride, 6.2 g cetearyl alcohol, 8.6 g 50/50 mixture of cetearyl glucoside and cetearyl alcohol and 3.5 g cocoa butter was heated to 75° C. until dissolved, removed from heat, mixed using Cimarec 2 magnetic stir. At 45° C. […]

[3] = tested on: primary reconstructed human psoriatic skin xenografts; test: Xenografts of reconstructed human psoriatic skin on NOD/SCID mice; format: in vivo; conditions: topical
[4] = tested on: psoriasis ADS (primary psoriasis keratinocytes and fibroblasts); test: Organotypic 3D skin equivalents (ADS) stimulated with IL17, IL22, TNFα; format: cell-based, human; conditions: 10 μM, 7 days
[5] = tested on: Human Primary keratinocytes; test: Cytokine response of TNF-α/IL-17 stimulated keratinocytes (Luminex); format: cell-based; conditions: TNF-α 10 ng/ml and IL-17 10 ng/ml, 48 hours
Method: Human Primary keratinocytes were purchased from Thermo Fisher. Keratinocytes were cultured in medium 154 supplemented with HKGS, split using TrypLE and neutralized using DMEM supplemented with 10% FBS. Cells were split to keep 20-80% confluency and not passaged above passage 5. Keratinocytes were detached using TrypLE Express, Trypsin Neutralizer solution was added and the detached cells transferred to a sterile conical tube. Cells were resuspended in 15 ml medium with HKGS supplemented (cat no S-001-K) but without hydrocortisone. The cells were pipetted up and down with a 10 ml pipette to ensure a homogeneous cell suspension.
Human primary keratinocytes detached as described above, were resuspended in PBS at 1×10^6 cells/ml and filtered through a 35 μm cell strainer. Cells were stained with CellTrace Violet at 5 μM for 20 minutes at 37° C., 5% CO2. After staining, DMEM supplemented with 10% FBS was added to stop staining and cells was incubated at 37° C., 5% CO2 for 5 minutes. After incubation, cells were washed with PBS 1× and resuspended in Medium 154 supplemented with HGKS without hydrocortisone at 6×10^5 cells/ml and 200 μl was added to wells in a 96-well flat bottom cell culture plate. Cells were incubated overnight at 37° C., 5% CO2/95% air. […]
Supernatants were analyzed for cytokines IL-6, IL-8, and CXCL1 using Luminex. […] Samples were analyzed on a Bio-Rad Luminex 200 analyzer. […]

Molecule | Rac1GTP (PAK pulldown) [1] | Rac1GTP (PAK pulldown) ([1]; listed as Benzamil) | Rac1GTP activity by confocal microscopy [1] | Rac1GTP activity by confocal microscopy ([1]; listed as Benzamil) | epidermal hyperplasia [2] | hyperproliferation (basal and supra-basal Ki67) [2] | psoriasiform inflammation [2] | Rac1-NCK1 PLA-proximity in xenografts [3] | epidermal thickness, Ki67+ epidermal cells and epidermal phospho-STAT3 (quantification) ([3]; daily for 15 days) | graft thickness (psoriasiform hyperplasia) ([3]; daily for 15 days) | suprabasal Ki67, CD3+ cell infiltration, phospho-STAT3 expression (immunofluorescence) ([3]; daily for 15 days) | proliferation (Ki67+ cells) in psoriasis ADS [4] | proliferation (Ki67+ cells) in psoriasis ADS ([4]; listed as Benzamil) | concentration with decrease of CXCL1 [5] | concentration with decrease of IL6 [5]
NC(=NCc1ccccc1)NC(=O)c1nc(Cl)c(N)nc1N [benzamil] | reduced Rac1^GTP | significantly reduced prolonged Rac1-activity | significant reduction in Rac1GTP | significantly reduced V12 Rac1 GTP activity | significantly reduced | significantly reduced | significantly reduced | strongly reduced | to levels comparable to control grafts | comparable to normal control graft skin | reduced levels | abrogated by benzamil | significantly reduced hyperproliferatory cells (Ki67) to unstimulated levels | – | –
Bromocriptine | – | – | – | – | – | – | – | – | – | – | – | – | – | ≥ 1 nM | ≥ 1 nM

Reference: patent US20240226126A1, “COMPOSITIONS FOR TREATMENT OF PSORIASIS” (The Board of Trustees of the Leland Stanford Junior …, priority 2021, published 2024)
